Results are given in words; binding and its absence hold for the method and conditions named. In cells and extracts the contact can be indirect. Some binding calls cover weakened binding; strength is not graded here.
Biological target: T1, ELKS1 (rat) (UniProt Q811U3)
T1 sequence: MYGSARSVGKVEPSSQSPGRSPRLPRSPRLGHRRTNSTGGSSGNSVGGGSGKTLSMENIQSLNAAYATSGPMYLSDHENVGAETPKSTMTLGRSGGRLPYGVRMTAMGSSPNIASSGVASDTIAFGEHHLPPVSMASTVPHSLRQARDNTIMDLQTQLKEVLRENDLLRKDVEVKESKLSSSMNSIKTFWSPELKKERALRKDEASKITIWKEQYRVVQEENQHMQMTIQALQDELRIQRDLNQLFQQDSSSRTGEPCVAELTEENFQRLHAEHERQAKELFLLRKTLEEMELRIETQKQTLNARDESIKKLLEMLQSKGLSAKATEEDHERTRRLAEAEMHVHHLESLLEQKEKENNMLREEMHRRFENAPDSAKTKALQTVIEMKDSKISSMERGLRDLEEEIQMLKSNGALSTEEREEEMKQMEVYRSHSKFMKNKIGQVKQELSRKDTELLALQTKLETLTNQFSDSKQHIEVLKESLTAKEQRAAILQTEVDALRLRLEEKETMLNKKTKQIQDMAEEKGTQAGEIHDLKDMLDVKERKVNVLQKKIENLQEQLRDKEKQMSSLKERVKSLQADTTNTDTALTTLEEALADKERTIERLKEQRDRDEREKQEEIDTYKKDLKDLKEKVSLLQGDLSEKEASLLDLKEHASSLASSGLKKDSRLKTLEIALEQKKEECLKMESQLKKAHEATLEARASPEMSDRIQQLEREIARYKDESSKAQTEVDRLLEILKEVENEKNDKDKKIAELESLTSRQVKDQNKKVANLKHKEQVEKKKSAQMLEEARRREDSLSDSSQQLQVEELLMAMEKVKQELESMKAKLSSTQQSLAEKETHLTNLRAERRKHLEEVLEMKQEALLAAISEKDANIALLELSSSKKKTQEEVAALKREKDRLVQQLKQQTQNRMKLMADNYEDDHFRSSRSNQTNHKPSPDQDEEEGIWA
Assay: co-IP

By UniProt entry, the sequences of proteins in these tests, tags left out. Where a name states a change or a piece, a line headed by the entry shows the natural chain unless it says otherwise. Chains listed by the source or under a name are the forms on record and can include a tag or linker.
UniProt O75334: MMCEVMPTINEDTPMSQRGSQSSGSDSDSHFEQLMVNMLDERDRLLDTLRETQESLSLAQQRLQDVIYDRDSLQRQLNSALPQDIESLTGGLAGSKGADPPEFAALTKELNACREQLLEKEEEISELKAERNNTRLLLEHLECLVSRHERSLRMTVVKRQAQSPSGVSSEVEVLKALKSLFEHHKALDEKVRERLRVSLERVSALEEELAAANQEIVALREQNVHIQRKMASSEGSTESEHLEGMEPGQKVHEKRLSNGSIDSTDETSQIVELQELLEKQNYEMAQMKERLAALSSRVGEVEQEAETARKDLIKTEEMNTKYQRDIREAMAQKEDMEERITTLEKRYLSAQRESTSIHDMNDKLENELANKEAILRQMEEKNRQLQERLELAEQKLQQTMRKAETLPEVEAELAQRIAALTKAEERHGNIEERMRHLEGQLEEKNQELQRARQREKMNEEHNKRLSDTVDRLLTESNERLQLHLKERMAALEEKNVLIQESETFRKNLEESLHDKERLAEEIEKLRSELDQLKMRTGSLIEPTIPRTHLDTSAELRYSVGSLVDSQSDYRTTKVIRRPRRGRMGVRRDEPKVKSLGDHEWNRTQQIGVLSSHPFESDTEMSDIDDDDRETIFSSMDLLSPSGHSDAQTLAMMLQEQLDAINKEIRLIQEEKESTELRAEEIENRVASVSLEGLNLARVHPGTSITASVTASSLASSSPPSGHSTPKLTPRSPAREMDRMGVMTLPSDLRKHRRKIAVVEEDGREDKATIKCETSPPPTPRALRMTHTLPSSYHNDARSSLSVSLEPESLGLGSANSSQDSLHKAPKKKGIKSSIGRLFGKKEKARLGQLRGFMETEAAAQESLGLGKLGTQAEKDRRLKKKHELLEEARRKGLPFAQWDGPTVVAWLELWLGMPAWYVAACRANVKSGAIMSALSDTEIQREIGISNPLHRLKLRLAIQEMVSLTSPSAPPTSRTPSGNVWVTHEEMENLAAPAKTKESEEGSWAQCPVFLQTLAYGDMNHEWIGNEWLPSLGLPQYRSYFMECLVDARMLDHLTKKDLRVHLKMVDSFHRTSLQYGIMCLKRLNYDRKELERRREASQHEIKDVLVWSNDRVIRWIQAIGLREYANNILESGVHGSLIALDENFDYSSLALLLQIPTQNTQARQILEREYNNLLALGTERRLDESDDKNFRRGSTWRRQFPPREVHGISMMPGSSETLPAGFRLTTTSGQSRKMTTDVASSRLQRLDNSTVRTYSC
liprin-α2 ΔCC2N (O75334, form named): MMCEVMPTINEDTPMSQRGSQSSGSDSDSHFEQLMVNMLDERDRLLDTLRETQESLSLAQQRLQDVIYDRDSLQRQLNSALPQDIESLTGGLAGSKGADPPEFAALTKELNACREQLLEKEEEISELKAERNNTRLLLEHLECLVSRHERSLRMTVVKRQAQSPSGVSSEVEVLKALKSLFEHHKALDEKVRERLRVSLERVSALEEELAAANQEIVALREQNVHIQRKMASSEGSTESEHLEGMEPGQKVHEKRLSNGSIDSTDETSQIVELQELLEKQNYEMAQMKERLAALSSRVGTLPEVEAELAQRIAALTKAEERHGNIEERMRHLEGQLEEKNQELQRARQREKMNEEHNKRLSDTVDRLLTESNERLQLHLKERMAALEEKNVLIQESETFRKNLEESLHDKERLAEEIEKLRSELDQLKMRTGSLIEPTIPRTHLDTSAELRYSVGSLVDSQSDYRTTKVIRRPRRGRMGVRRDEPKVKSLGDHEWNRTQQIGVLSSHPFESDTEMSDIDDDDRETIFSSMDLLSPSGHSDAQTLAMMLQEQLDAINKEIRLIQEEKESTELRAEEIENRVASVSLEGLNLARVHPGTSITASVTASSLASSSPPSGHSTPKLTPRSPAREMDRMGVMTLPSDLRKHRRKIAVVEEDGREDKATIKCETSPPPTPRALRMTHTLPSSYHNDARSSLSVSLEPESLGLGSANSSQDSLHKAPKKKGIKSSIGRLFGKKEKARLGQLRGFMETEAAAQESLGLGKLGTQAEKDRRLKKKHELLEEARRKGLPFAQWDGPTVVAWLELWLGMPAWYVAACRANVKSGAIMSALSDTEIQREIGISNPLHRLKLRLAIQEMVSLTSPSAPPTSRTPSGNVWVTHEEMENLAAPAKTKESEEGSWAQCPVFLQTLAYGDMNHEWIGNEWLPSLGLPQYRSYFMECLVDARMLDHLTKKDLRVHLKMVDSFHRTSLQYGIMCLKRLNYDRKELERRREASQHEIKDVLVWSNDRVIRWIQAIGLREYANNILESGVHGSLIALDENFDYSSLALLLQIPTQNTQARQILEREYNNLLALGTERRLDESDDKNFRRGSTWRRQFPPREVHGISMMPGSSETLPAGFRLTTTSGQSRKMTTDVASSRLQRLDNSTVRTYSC

Row | binding | Substance
1 | binds | liprin-α2 (wild type, co-immunoprecipitation) (from UniProt O75334 1-1257)
2 | binds | liprin-α2 E344R (from UniProt O75334 1-1257)
3 | binds | liprin-α2 R346E (from UniProt O75334 1-1257)
4 | binds | liprin-α2 ΔCC2N (from UniProt O75334 1-1257)

From doi:10.1101/2024.08.29.610253
